Experimental data: PubChem BioAssay AID504764 (Drosophila RNAi Screening Center, 2011)

Aim: 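Genome-wide screen for regulators of Notch-driven gene expression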 (primary screen)
System: Drosophila Kc167 cells
Knock-down reagent: long dsRNA against Drosophila genes
Duration: about 5 days (4 days dsRNA, then 24 h after transfection)
Treatment: transfection of constitutively active membrane-tethered Notch lacking the extracellular domain, read 24 h later
Detection: 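Firefly luciferase from an E(spl)m3 reporter with active Notch, plus control-promoter and uninduced reporter wells for normalisation; unnormalised counts, duplicate wells a and b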
Direction: induced reporter light, run 1, well a and induced reporter light, run 1, well b: higher = more light from the Notch target reporter with active Notch; control promoter light, run 1, well a and control promoter light, run 1, well b: higher = more light from the viral control promoter (cell number, transfection, viability); uninduced reporter light, run 1, well a: higher = more light from the Notch target reporter without active Notch
Hit rule: 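Hit if the duplicate-averaged log2 ratio of induced to control-promoter light gives a plate-wise z beyond ±2, or induced to uninduced beyond ±1.8; weak-control or discordant-duplicate wells dropped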
Meaning of the calls: active = modifier hit (raised or lowered Notch signal); inactive = not a hit
The screen tested about 22,000 reagents; below is an unselected part of those with a known target gene and a result. In the full data, 403 (1.9%) were called active. 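Unnormalised raw counts per well; ratio z-scores behind the hit calls and whether each hit raises or lowers signal are not deposited.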 Reagents against one gene are numbered here. Not given: the amount of reagent.

Target gene	reagent no.	induced reporter light, run 1, well a	induced reporter light, run 1, well b	control promoter light, run 1, well a	control promoter light, run 1, well b	uninduced reporter light, run 1, well a	Call
CG13855	1	1.72e5	1.68e5	1.80e5	2.01e5	12682	inactive
Acf (ATP-dependent chromatin assembly factor large subunit)	1	1.45e5	1.43e5	1.93e5	1.76e5	11600	inactive
CG31337	1	1.41e5	1.27e5	1.45e5	1.86e5	10360	inactive
Rab9Fb (Rab at 9Fb)	1	1.25e5	1.06e5	1.85e5	1.70e5	8145	inactive
loh (lonely heart)	1	1.34e5	1.40e5	2.15e5	1.82e5	11095	inactive
loh (lonely heart)	2	1.19e5	1.52e5	70335	1.02e5	15128	inactive
Ubc84D (Ubiquitin conjugating enzyme 84D)	1	82155	88935	73960	57835	6580	inactive
CG11373	1	1.16e5	1.17e5	1.01e5	80940	7455	inactive
CG8545	1	1.20e5	97270	1.02e5	1.06e5	7510	inactive
CG15605	1	1.37e5	1.11e5	90895	1.14e5	9720	inactive
pkm (Pinkman)	1	2.45e5	2.29e5	2.48e5	2.33e5	15110	inactive
CG34034	1	56895	51285	67110	46145	8430	inactive
park (parkin)	1	1.27e5	1.32e5	85605	95315	8630	inactive
lectin-21Ca	1	1.40e5	1.06e5	95325	49965	9050	inactive
Axud1 (AXIN1 up-regulated 1)	1	1.29e5	1.34e5	1.08e5	59025	10615	inactive
TwdlK (TweedleK)	1	62965	58325	45420	42690	9055	inactive
CG32109	1	1.20e5	1.26e5	2.08e5	1.75e5	8125	inactive
CG14132	1	1.48e5	1.07e5	1.78e5	1.89e5	7005	inactive
TwdlZ (TweedleZ)	1	95020	98600	86890	76250	7015	inactive
SerRS-m (Seryl-tRNA synthetase, mitochondrial)	1	2.51e5	2.53e5	2.37e5	2.13e5	20795	inactive
Grx1 (Glutaredoxin 1)	1	1.49e5	1.15e5	2.04e5	2.82e5	6010	active
CG17777	1	77015	1.01e5	1.49e5	1.50e5	6570	inactive
Nadk1b (NAD kinase 1b)	1	1.85e5	1.97e5	2.11e5	2.30e5	18240	inactive
Nadk1b (NAD kinase 1b)	2	1.91e5	1.83e5	1.67e5	1.61e5	14565	inactive
Nadk1b (NAD kinase 1b)	3	80245	75520	86035	96415	7440	inactive
CG14645	1	1.18e5	1.20e5	1.14e5	96485	8075	inactive
CG10252	1	1.28e5	1.25e5	2.01e5	1.66e5	13810	inactive
CG31551	1	1.22e5	1.32e5	88915	76980	10475	inactive
CG31551	2						inactive
Fuca (alpha-L-fucosidase)	1	90630	73660	97705	74770	5125	inactive
CG15269	1	1.11e5	1.15e5	1.14e5	1.17e5	8805	inactive
CG32814	1	36520	56100	59585	75025	4935	inactive
Vps26 (Vacuolar protein sorting 26)	1	57025	68525	74570	81650	9800	inactive
CG10333	1	1.67e5	1.69e5	1.07e5	1.14e5	7115	active
wash (washout)	1	1.08e5	95155	1.20e5	97125	7730	inactive
IntS1 (Integrator 1)	1	1.83e5	1.42e5	83080	75715	24195	active
Ccp84Ac	1	1.22e5	1.30e5	1.22e5	1.01e5	7930	inactive
lncRNA:CR32368 (long non-coding RNA:CR32368)	1	2.06e5	2.22e5	1.93e5	2.31e5	11505	inactive
CG34106	1	1.02e5	69070	71830	74145	6660	inactive
CG4995	1	2.24e5	2.03e5	1.75e5	1.76e5	14325	inactive
beat-IIIa (beaten path IIIa)	1	77500	69160	77260	68615	7470	inactive
beat-IIIa (beaten path IIIa)	2	1.24e5	93450	85920	93590	7695	inactive
beat-IIIa (beaten path IIIa)	3	1.65e5	1.93e5	1.66e5	1.90e5	14175	inactive
APC10 (Anaphase Promoting Complex subunit 10)	1	1.04e5	92545	1.05e5	99970	8025	inactive
Cad87A (Cadherin 87A)	1	1.04e5	1.19e5	88810	75925	8625	inactive
CG7203	1	1.06e5	1.30e5	96680	1.17e5	18615	inactive
CG8329	1	1.16e5	1.09e5	79080	47400	11690	inactive
scb (scab)	1	1.71e5	1.80e5	3.14e5	3.11e5	17745	inactive
scb (scab)	2	1.01e5	93560	1.46e5	1.17e5	9615	inactive
Ir20a (Ionotropic receptor 20a)	1	84895	71410	86635	1.13e5	8990	inactive

Records above whose target name starts with T or t (2):
Target gene	reagent no.	induced reporter light, run 1, well a	induced reporter light, run 1, well b	control promoter light, run 1, well a	control promoter light, run 1, well b	uninduced reporter light, run 1, well a	Call
TwdlK (TweedleK)	1	62965	58325	45420	42690	9055	inactive
TwdlZ (TweedleZ)	1	95020	98600	86890	76250	7015	inactive
